Where no end group is shown, it is not given here. [ ]: non-standard residue; d: D form. Pra = C#CC[C@H](N)C(=O)O
Experiment: general procedure: Fmoc solid-phase peptide synthesis; Rink amide AM resin (0.47 mmol/g); HBTU/DIEA
Settings: whole synthesis; for isolated yield: scale of the general procedure 100 mg Fmoc-Pra-rink amide resin

Substance	isolated mass	isolated yield
MRIFAVFIFMTYWHLLNAK[Pra]	19 mg	16.1%
YKLNLIHPHIFLMDWIFASG[Pra]	6.6 mg	5.6%
MPIFLDHILNKFWILHYASG[Pra]	24.2 mg	20.5%

Source: patent publication US12643935B2 (UNIVERSITY OF SOUTHERN CALIFORNIA, priority 2020, dated 2026)
